We go through 42 sequences from paper PMC7819943, “Rice protein-binding microarrays: a tool to detect cis-acting elements near promoter regions in rice”.

This is one part of the list.

The target in the test is T1, OsSMF1 (Oryza sativa, UniProt Q6ZLB0 1-436).
T1 sequence: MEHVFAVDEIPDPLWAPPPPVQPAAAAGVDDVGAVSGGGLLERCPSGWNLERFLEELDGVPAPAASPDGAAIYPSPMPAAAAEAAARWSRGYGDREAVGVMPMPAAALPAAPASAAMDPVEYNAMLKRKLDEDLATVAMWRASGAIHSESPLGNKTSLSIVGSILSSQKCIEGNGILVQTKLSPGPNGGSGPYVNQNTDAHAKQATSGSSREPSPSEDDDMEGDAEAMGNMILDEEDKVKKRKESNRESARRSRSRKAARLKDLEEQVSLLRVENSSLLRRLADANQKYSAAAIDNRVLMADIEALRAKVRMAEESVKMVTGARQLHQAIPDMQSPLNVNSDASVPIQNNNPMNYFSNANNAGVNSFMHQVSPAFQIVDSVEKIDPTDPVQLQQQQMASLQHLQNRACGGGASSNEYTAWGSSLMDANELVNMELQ
Nature of the test: protein-binding microarray (RPBM); PBS, 2% BSA, 51.3 ng/ul salmon testes DNA, 50 uM zinc acetate, 200 nM TF, 25 C, 1 h; high values mean tight binding. As to conditions: protein: recombinant; tags: N-terminal polyhistidine and DsRed monomer fusion (pET32a); chain copies: 2; label: CyDye5-dUTP incorporated in the synthesized complementary strand; 3' TTTTT single-stranded linker to array surface; dsDNA, one strand shown. The procedure, abridged:
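Polyhistidine-tagged DsRed fusions of transcription factors, joined at the N-terminus, were expressed in E. coli BL21-CodonPlus and isolated on Ni–NTA. They were incubated at 200 nM for 1 h at 25 °C on a custom Agilent array, double-stranded and BSA-blocked, in PBS with 2% BSA, salmon testes DNA and 50 µM zinc acetate. The binding signal is per-feature fluorescence intensity (arbitrary units) read on an Axon 4000B scanner after washing.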
Regarding “GAGAGCGGTATTGCGCGGATGGCATACTTAAGCAAGTTGACGGAGTCACCTAGTGCAG”, the binding signal is 31500 fluorescence intensity (a.u.).

In the case of “TGCCCTCCCTCCGCAGCCGTACACGTGTCCCGATCCCCAGCGGAGTCACCTAGTGCAG”, the binding signal is 5860 fluorescence intensity (a.u.).

On to “GCTTCAAATTTGAGAGTATGACATGTGGGTCCTAAGGCTACGGAGTCACCTAGTGCAG”, for which the binding signal is 3520 fluorescence intensity (a.u.).

For “ATATGGTTTCAAATGACATCAATCTGAACTAGCCCGTAGTCGGAGTCACCTAGTGCAG”, the binding signal was 3250 fluorescence intensity (a.u.).

For the sequence “AGATGGCATTCCCAGTTTAGTCATGTACACCGTAGCCGTACGGAGTCACCTAGTGCAG”, the binding signal is 3440 fluorescence intensity (a.u.).

For “GCGTCTGGGGCCTCGGGCGGCGCGCGCGGGGAGGGGCGTGCGGAGTCACCTAGTGCAG”, the binding signal is 3280 fluorescence intensity (a.u.).

For the sequence “GATAATCATTTTGTTTCCATGTCATGTGAAATTTATAATTCGGAGTCACCTAGTGCAG”, the binding signal is 3710 fluorescence intensity (a.u.).

As to “TCGCCTGCGGTCGTGCGCGCGTGGCGTACGTGCGGCCACCCGGAGTCACCTAGTGCAG”, the binding signal was 4480 fluorescence intensity (a.u.).

On to “CTTGGCCCAGAAACAACACACACACTCAAATCTGGATCCACGGAGTCACCTAGTGCAG”, for which the binding signal was 3790 fluorescence intensity (a.u.).

For the sequence “AAATGAAATAAACATGTGAGTTGCTGCTGCGTACGTGTTGCGGAGTCACCTAGTGCAG”, the binding signal was 4400 fluorescence intensity (a.u.).

Consider “ACAATATAGGGTGTGACAGTTTGAAACGACGCAAATCGAGCGGAGTCACCTAGTGCAG”, for which the binding signal was 28700 fluorescence intensity (a.u.).

As to “CCCACCACCATCCATCCATGTGTCACCCCTCCTCCGCTTGCGGAGTCACCTAGTGCAG”, the binding signal is 3580 fluorescence intensity (a.u.).

Take “ATATATTGACAAGGCAATGACATAGATAGCTAGACATATCCGGAGTCACCTAGTGCAG”: the binding signal is 3190 fluorescence intensity (a.u.).

For the sequence “GCTGGACGCGGATGGGCTAAACCGTATTCCCCGTCACTTTCGGAGTCACCTAGTGCAG”, the binding signal is 4150 fluorescence intensity (a.u.).

Take “GAAATATGTGACACTGATATGTGGGTCACGCGTGCTTACTCGGAGTCACCTAGTGCAG”: the binding signal was 3500 fluorescence intensity (a.u.).

With “GAGTCCTTGGACCACCTGGATTTTGGCCCGGCCCAAACAACGGAGTCACCTAGTGCAG”, the binding signal is 18700 fluorescence intensity (a.u.).

With “GTCCGGGCCTCCTGCCATTACGTGATGATGTGTAAAGGACCGGAGTCACCTAGTGCAG”, the binding signal was 6960 fluorescence intensity (a.u.).

In the case of “ATGCAATGCATGCCACGCCATGCATCATATCCTCGTCGTCCGGAGTCACCTAGTGCAG”, the binding signal is 7760 fluorescence intensity (a.u.).

For the sequence “TTTGGACGACGGTTTCAGCTGACGTGACGCCTACATATCTCGGAGTCACCTAGTGCAG”, the binding signal is 8650 fluorescence intensity (a.u.).

As for “TCAGTGTACATTCACTAATTAAATTAACAGGTTTGTTCAACGGAGTCACCTAGTGCAG”, the binding signal is 32900 fluorescence intensity (a.u.).

Consider “TCCAAGACATTGAGGTTGTTCTTGCTGACAAACTCGTTGCCGGAGTCACCTAGTGCAG”, for which the binding signal was 3660 fluorescence intensity (a.u.).

For the sequence “ATTGGGGAGAGGAGCTGGGCGAGGCGGGGCTTGGGCTCGGCGGAGTCACCTAGTGCAG”, the binding signal is 3390 fluorescence intensity (a.u.).

On to “CTTATATTACCTGTCAGAATACCAAACCAACCAGGCCGAACGGAGTCACCTAGTGCAG”, for which the binding signal is 24800 fluorescence intensity (a.u.).

With “GTTGCCTAGGATGTCGATCTTCGGGTCTTGGGTGAGCGTGCGGAGTCACCTAGTGCAG”, the binding signal is 3250 fluorescence intensity (a.u.).

For “CGCCTCCTCCTCCCCACCTCATCACCACCGCCGCCAACCACGGAGTCACCTAGTGCAG”, the binding signal is 3690 fluorescence intensity (a.u.).

With “ACAGCGCGACGAGACTGACGAATGACGACGCAAGCACAACCGGAGTCACCTAGTGCAG”, the binding signal was 3380 fluorescence intensity (a.u.).

On to “AATTTGCAATGCTTCTTGCTTGTGATTGTGACGACGATGCCGGAGTCACCTAGTGCAG”, for which the binding signal is 3720 fluorescence intensity (a.u.).

For “TCCTGATACTGGCCGACATCAACTTAATTACATCATATCGCGGAGTCACCTAGTGCAG”, the binding signal was 3150 fluorescence intensity (a.u.).

With “TCCGTACCGTGTGGAAAGGGTCATCGGGTCAGCTCAGCTGCGGAGTCACCTAGTGCAG”, the binding signal was 3280 fluorescence intensity (a.u.).

As for “CAAAGGATACGATCGGAATAACACGTGTGGTAACCCTTCGCGGAGTCACCTAGTGCAG”, the binding signal is 7080 fluorescence intensity (a.u.).

Turning to “CTCTCTGTCTCACCGGTATAGAAGCTAGTGACACTAGGCACGGAGTCACCTAGTGCAG”, the binding signal is 3150 fluorescence intensity (a.u.).

With “ACTCTCATGCATATTAGTCATCAAGTTGAATTGGCCCTGACGGAGTCACCTAGTGCAG”, the binding signal is 5110 fluorescence intensity (a.u.).

“AGAGTGCGCATGTCCGCAATTGGTGACTCCATCCCGGCCACGGAGTCACCTAGTGCAG”: the binding signal was 3150 fluorescence intensity (a.u.).

Consider “CGGCGAGGAGGAGGAGGAAGAGCAGCGGGTGGAGCACGGCCGGAGTCACCTAGTGCAG”, for which the binding signal is 4350 fluorescence intensity (a.u.).

Regarding “CCAATTCTCAGTGGCTTCTGTATGTAAATCTTGTTGGAAACGGAGTCACCTAGTGCAG”, the binding signal is 3210 fluorescence intensity (a.u.).

For the sequence “GCCGCGCAAATCACCACGCCACGCCCCGCCCGCGCGCGTCCGGAGTCACCTAGTGCAG”, the binding signal is 3890 fluorescence intensity (a.u.).

“GAATAGCAACCTGTGGGCAGACAATGATGAGGCCAAGAACCGGAGTCACCTAGTGCAG”: the binding signal was 6250 fluorescence intensity (a.u.).

With “CCGCGAGCGCACATCCTCATCCGGCGAGGTCCAGGAGGGGCGGAGTCACCTAGTGCAG”, the binding signal was 3540 fluorescence intensity (a.u.).

Turning to “TCATCCTTCAAAACGGTACTTGTGTGGCACGTGTATGTCACGGAGTCACCTAGTGCAG”, the binding signal was 6020 fluorescence intensity (a.u.).

With “CATCACACCCACTTGTCCGCACACAAGAAGAGACCAGCTACGGAGTCACCTAGTGCAG”, the binding signal is 50600 fluorescence intensity (a.u.).

On to “ATATACATCTACTCCTAAATTATTATTATTATTATTTTCACGGAGTCACCTAGTGCAG”, for which the binding signal is 3520 fluorescence intensity (a.u.).

For “TTGCGGCCGTCTCGCGTGGGATGCGTGTCGCCATTTTAATCGGAGTCACCTAGTGCAG”, the binding signal is 3290 fluorescence intensity (a.u.).
